{
  "source": "patent US10307463B2",
  "about": "(priority 2003, dated 2019)",
  "type": "physicochemical",
  "conditions": "on average, in all admixtures, for 60 days",
  "data": [
    {"compound": "CN1CC[C@]23c4c5ccc(O)c4O[C@H]2[C@@H](O)C=C[C@H]3[C@H]1C5.O=S(=O)(O)O", "note": "[morphine sulfate]", "values": [
      {"measurement": "concentration of morphine sulfate, of initial concentration", "result": "above 90%"}
    ]}
  ]
}
